Construct, isoform or probe ends are uncertain for at least one entry.
System: CaDof1 (Capsicum annuum)
Assay: EMSA
Conditions: 100 ng protein, 1 ul of 2 uM probe, poly dIdC, HEPES/KOH pH 7.9, KCl; oligomers ligated before labelling; purified recombinant protein; label: 32P

Sequence: CTCTTTAATTTCCCA (double strand) [TMV-inducible element of CaPR-4 promoter]
- binding result: binds

From patent US20090199310
